Measured values taken from article PMC3922604.

Sequences of proteins named here, by UniProt entry; tags and fusion partners are left off. Residues count along the entry.
UniProt P02768, residues 25-609: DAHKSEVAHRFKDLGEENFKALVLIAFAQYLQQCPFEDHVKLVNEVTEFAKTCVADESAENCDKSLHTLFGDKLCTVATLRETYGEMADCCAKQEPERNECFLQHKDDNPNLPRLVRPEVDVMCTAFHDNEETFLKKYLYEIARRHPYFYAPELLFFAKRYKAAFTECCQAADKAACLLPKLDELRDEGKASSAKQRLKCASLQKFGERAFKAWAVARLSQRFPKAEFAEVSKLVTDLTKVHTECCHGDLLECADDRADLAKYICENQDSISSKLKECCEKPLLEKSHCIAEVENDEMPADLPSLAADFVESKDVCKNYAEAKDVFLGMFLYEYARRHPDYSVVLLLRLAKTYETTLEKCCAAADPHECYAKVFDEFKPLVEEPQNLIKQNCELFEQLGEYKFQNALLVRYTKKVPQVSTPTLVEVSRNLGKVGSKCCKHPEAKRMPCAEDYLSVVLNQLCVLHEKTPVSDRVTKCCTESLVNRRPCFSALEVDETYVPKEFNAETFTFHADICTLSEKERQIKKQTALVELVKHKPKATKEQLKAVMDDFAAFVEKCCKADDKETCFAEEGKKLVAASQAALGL

Experiments:
[1] = molecular target: albumin (human (endogenous in blood)) (UniProt P02768); assay: cross-linking + affinity purification with mass spectrometry; fresh human blood cross-linked 5 s in 10% formaldehyde, quenched with 4 M Tris; immunoprecipitation with anti-human serum albumin antibody and Protein A + G agarose, washed with PBS; 4-12% SDS-PAGE, six unstained slices above 70 kDa, LC-MS/MS; control: cross-linked sample without antibody
[2] = molecular target: albumin (human (endogenous in blood)), P02768; assay: as above; conditions: remark: other sources report otherwise

B1: CATA_HUMAN (protein, UniProt P04040 1-527)
chain: MADSRDPASDQMQHWKEQRAAQKADVLTTGAGNPVGDKLNVITVGPRGPLLVQDVVFTDEMAHFDRERIPERVVHAKGAGAFGYFEVTHDITKYSKAKVFEHIGKKTPIAVRFSTVAGESGSADTVRDPRGFAVKFYTEDGNWDLVGNNTPIFFIRDPILFPSFIHSQKRNPQTHLKDPDMVWDFWSLRPESLHQVSFLFSDRGIPDGHRHMNGYGSHTFKLVNANGEAVYCKFHYKTDQGIKNLSVEDAARLSQEDPDYGIRDLFNAIATGKYPSWTFYIQVMTFNQAETFPFNPFDLTKVWPHKDYPLIPVGKLVLNRNPVNYFAEVEQIAFDPSNMPPGIEASPDKMLQGRLFAYPDTHRHRLGPNYLHIPVNCPYRARVANYQRDGPMCMQDNQGGAPNYYPNSFGAPEQQPSALEHSIQYSGEVRRFNTANDDNVTQVRAFYVNVLNEEQRKRLCENIAGHLKDAQIFIQKKAVKNFTEVHPDYGSHIQALLDKYNAEKPKNAIHTFVQSGSHLAAREKANL
binding [1]: binds

B2: CERU_HUMAN (protein, UniProt P00450 20-1065)
chain: KEKHYYIGIIETTWDYASDHGEKKLISVDTEHSNIYLQNGPDRIGRLYKKALYLQYTDETFRTTIEKPVWLGFLGPIIKAETGDKVYVHLKNLASRPYTFHSHGITYYKEHEGAIYPDNTTDFQRADDKVYPGEQYTYMLLATEEQSPGEGDGNCVTRIYHSHIDAPKDIASGLIGPLIICKKDSLDKEKEKHIDREFVVMFSVVDENFSWYLEDNIKTYCSEPEKVDKDNEDFQESNRMYSVNGYTFGSLPGLSMCAEDRVKWYLFGMGNEVDVHAAFFHGQALTNKNYRIDTINLFPATLFDAYMVAQNPGEWMLSCQNLNHLKAGLQAFFQVQECNKSSSKDNIRGKHVRHYYIAAEEIIWNYAPSGIDIFTKENLTAPGSDSAVFFEQGTTRIGGSYKKLVYREYTDASFTNRKERGPEEEHLGILGPVIWAEVGDTIRVTFHNKGAYPLSIEPIGVRFNKNNEGTYYSPNYNPQSRSVPPSASHVAPTETFTYEWTVPKEVGPTNADPVCLAKMYYSAVEPTKDIFTGLIGPMKICKKGSLHANGRQKDVDKEFYLFPTVFDENESLLLEDNIRMFTTAPDQVDKEDEDFQESNKMHSMNGFMYGNQPGLTMCKGDSVVWYLFSAGNEADVHGIYFSGNTYLWRGERRDTANLFPQTSLTLHMWPDTEGTFNVECLTTDHYTGGMKQKYTVNQCRRQSEDSTFYLGERTYYIAAVEVEWDYSPQREWEKELHHLQEQNVSNAFLDKGEFYIGSKYKKVVYRQYTDSTFRVPVERKAEEEHLGILGPQLHADVGDKVKIIFKNMATRPYSIHAHGVQTESSTVTPTLPGETLTYVWKIPERSGAGTEDSACIPWAYYSTVDQVKDLYSGLIGPLIVCRRPYLKVFNPRRKLEFALLFLVFDENESWYLDDNIKTYSDHPEKVNKDDEEFIESNKMHAINGRMFGNLQGLTMHVGDEVNWYLMGMGNEIDLHTVHFHGHSFQYKHRGVYSSDVFDIFPGTYQTLEMFPRTPGIWLLHCHVTDHIHAGMETTYTVLQNEDTKSG
binding [1]: binds

B3: IC1_HUMAN (protein, UniProt P05155 23-500)
chain: NPNATSSSSQDPESLQDRGEGKVATTVISKMLFVEPILEVSSLPTTNSTTNSATKITANTTDEPTTQPTTEPTTQPTIQPTQPTTQLPTDSPTQPTTGSFCPGPVTLCSDLESHSTEAVLGDALVDFSLKLYHAFSAMKKVETNMAFSPFSIASLLTQVLLGAGENTKTNLESILSYPKDFTCVHQALKGFTTKGVTSVSQIFHSPDLAIRDTFVNASRTLYSSSPRVLSNNSDANLELINTWVAKNTNNKISRLLDSLPSDTRLVLLNAIYLSAKWKTTFDPKKTRMEPFHFKNSVIKVPMMNSKKYPVAHFIDQTLKAKVGQLQLSHNLSLVILVPQNLKHRLEDMEQALSPSVFKAIMEKLEMSKFQPTLLTLPRIKVTTSQDMLSIMEKLEFFDFSYDLNLCGLTEDPDLQVSAMQHQTVLELTETGVEAAAASAISVARTLLVFEVQQPFLFVLWDQQHKFPVFMGRVYDPRA
binding [1]: binds

B4: PRDX2_HUMAN (protein, UniProt P32119 1-198)
chain: MASGNARIGKPAPDFKATAVVDGAFKEVKLSDYKGKYVVLFFYPLDFTFVCPTEIIAFSNRAEDFRKLGCEVLGVSVDSQFTHLAWINTPRKEGGLGPLNIPLLADVTRRLSEDYGVLKTDEGIAYRGLFIIDGKGVLRQITVNDLPVGRSVDEALRLVQAFQYTDEHGEVCPAGWKPGSDTIKPNVDDSKEYFSKHN
binding [1]: binds

B5: S10A7_HUMAN (protein, UniProt P31151 1-101)
chain: MSNTQAERSIIGMIDMFHKYTRRDDKIEKPSLLTMMKENFPNFLSACDKKGTNYLADVFEKKDKNEDKKIDFSEFLSLLGDIATDYHKQSHGAAPCSGGSQ
binding [1]: binds

B6: S10A9_HUMAN (protein, UniProt P06702 1-114)
chain: MTCKMSQLERNIETIINTFHQYSVKLGHPDTLNQGEFKELVRKDLQNFLKKENKNEKVIEHIMEDLDTNADKQLSFEEFIMLMARLTWASHEKMHEGDEGPGHHHKPGLGEGTP
binding [1]: binds

B7: SPB3_HUMAN (protein, UniProt P29508 1-390)
chain: MNSLSEANTKFMFDLFQQFRKSKENNIFYSPISITSALGMVLLGAKDNTAQQIKKVLHFDQVTENTTGKAATYHVDRSGNVHHQFQKLLTEFNKSTDAYELKIANKLFGEKTYLFLQEYLDAIKKFYQTSVESVDFANAPEESRKKINSWVESQTNEKIKNLIPEGNIGSNTTLVLVNAIYFKGQWEKKFNKEDTKEEKFWPNKNTYKSIQMMRQYTSFHFASLEDVQAKVLEIPYKGKDLSMIVLLPNEIDGLQKLEEKLTAEKLMEWTSLQNMRETRVDLHLPRFKVEESYDLKDTLRTMGMVDIFNGDADLSGMTGSRGLVLSGVLHKAFVEVTEEGAEAAAATAVVGFGSSPTSTNEEFHCNHPFLFFIRQNKTNSILFYGRFSSP
binding [1]: binds

B8: PIP_HUMAN (protein, UniProt P12273 29-146)
chain: QDNTRKIIIKNFDIPKSVRPNDEVTAVLAVQTELKECMVVKTYLISSIPLQGAFNYKYTACLCDDNPKTFYWDFYTNRTVQIAAVVDVIRELGICPDDAAVIPIKNNRFYTIEILKVE
binding [1]: binds

B9: A2MG_HUMAN, P01023 24-1474 (protein)
chain: SVSGKPQYMVLVPSLLHTETTEKGCVLLSYLNETVTVSASLESVRGNRSLFTDLEAENDVLHCVAFAVPKSSSNEEVMFLTVQVKGPTQEFKKRTTVMVKNEDSLVFVQTDKSIYKPGQTVKFRVVSMDENFHPLNELIPLVYIQDPKGNRIAQWQSFQLEGGLKQFSFPLSSEPFQGSYKVVVQKKSGGRTEHPFTVEEFVLPKFEVQVTVPKIITILEEEMNVSVCGLYTYGKPVPGHVTVSICRKYSDASDCHGEDSQAFCEKFSGQLNSHGCFYQQVKTKVFQLKRKEYEMKLHTEAQIQEEGTVVELTGRQSSEITRTITKLSFVKVDSHFRQGIPFFGQVRLVDGKGVPIPNKVIFIRGNEANYYSNATTDEHGLVQFSINTTNVMGTSLTVRVNYKDRSPCYGYQWVSEEHEEAHHTAYLVFSPSKSFVHLEPMSHELPCGHTQTVQAHYILNGGTLLGLKKLSFYYLIMAKGGIVRTGTHGLLVKQEDMKGHFSISIPVKSDIAPVARLLIYAVLPTGDVIGDSAKYDVENCLANKVDLSFSPSQSLPASHAHLRVTAAPQSVCALRAVDQSVLLMKPDAELSASSVYNLLPEKDLTGFPGPLNDQDNEDCINRHNVYINGITYTPVSSTNEKDMYSFLEDMGLKAFTNSKIRKPKMCPQLQQYEMHGPEGLRVGFYESDVMGRGHARLVHVEEPHTETVRKYFPETWIWDLVVVNSAGVAEVGVTVPDTITEWKAGAFCLSEDAGLGISSTASLRAFQPFFVELTMPYSVIRGEAFTLKATVLNYLPKCIRVSVQLEASPAFLAVPVEKEQAPHCICANGRQTVSWAVTPKSLGNVNFTVSAEALESQELCGTEVPSVPEHGRKDTVIKPLLVEPEGLEKETTFNSLLCPSGGEVSEELSLKLPPNVVEESARASVSVLGDILGSAMQNTQNLLQMPYGCGEQNMVLFAPNIYVLDYLNETQQLTPEIKSKAIGYLNTGYQRQLNYKHYDGSYSTFGERYGRNQGNTWLTAFVLKTFAQARAYIFIDEAHITQALIWLSQRQKDNGCFRSSGSLLNNAIKGGVEDEVTLSAYITIALLEIPLTVTHPVVRNALFCLESAWKTAQEGDHGSHVYTKALLAYAFALAGNQDKRKEVLKSLNEEAVKKDNSVHWERPQKPKAPVGHFYEPQAPSAEVEMTSYVLLAYLTAQPAPTSEDLTSATNIVKWITKQQNAQGGFSSTQDTVVALHALSKYGAATFTRTGKAAQVTIQSSGTFSSKFQVDNNNRLLLQQVSLPELPGEYSMKVTGEGCVYLQTSLKYNILPEKEEFPFALGVQTLPQTCDEPKAHTSFQISLSVSYTGSRSASNMAIVDVKMVSGFIPLKPTVKMLERSNHVSRTEVSSNHVLIYLDKVSNQTLSLFFTVLQDVPVRDLKPAIVKVYDYYETDEFAIAEYNAPCSKDLGNA
binding [2]: binds

No constants are given. Whether binding was seen depends on the method and setting. Binding seen in cells or lysates may run through a third protein. A yes stands for co-enrichment or nearness to the bait. Other partners may have been found.
